The inconclusive results got no clear call from the source; some entries with a clear call stand among them for comparison. A potency beside an inconclusive call is a rough fit, not a confirmed value. Calls of active or inactive are those of the source. The call rests on the fitted dose curve; in most records, active means well fitted cell-killing curve with a large enough effect; inconclusive means small, poorly fitted or top-dose-only effect, or effect the other way; inactive means no such curve, though single readings can be large or run the other way.
Experiment: Quantitative High-Throughput drug screen in 47 multiple myeloma cell lines against the NCATS MIPE library collection: EJM_DSMZ cell viability assay (AID 1918926)
Details: EJM myeloma cell viability, CellTiter-Glo ATP, 48 h; series mostly up to 45.8 µM
How it was run: (§1)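 We plated 500 myeloma cells per well, pinned in MIPE 4.0 compounds, and incubated for 48 hours at 37C. ATP was then quantified with CellTiter-Glo, with DMSO and media-only wells defining 100% and 0%.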
Further: nearly all actives have a fitted effect of over 30% in size.
Potency means the concentration at half of the fitted maximal effect.

Structure (SMILES)	Potency
CN(C)CCN1C(=O)c2cccc3cc(N)cc(c23)C1=O	active: 23.5 µM
O=C(NOC[C@H](O)CO)c1ccc(F)c(F)c1Nc1ccc(I)cc1F	inactive
CNC(=O)c1cc(Oc2ccc(NC(=O)Nc3ccc(Cl)c(C(F)(F)F)c3)cc2)ccn1	active: 18.7 µM
NS(=O)(=O)c1cc(Cl)c(Cl)c(S(N)(=O)=O)c1	inactive
N#CC(c1ccc(Cl)cc1)c1c(Cl)cc(-n2ncc(=O)[nH]c2=O)cc1Cl (stereo not drawn)	active: 16.6 µM
COc1cc2ncnc(Nc3ccc(F)c(Cl)c3)c2cc1NC(=O)C=CCN1CCCCC1	active: 20.9 µM
C=CC(=O)N1CCc2ccc(-n3c(=O)ccc4cnc5ccc(-c6cnn(C)c6)cc5c43)cc21	active: 3.72 µM
CN1CCN(c2cc(C(=O)Nc3ccc4c(c3)-c3c(c(C(N)=O)nn3-c3ccc(F)cc3)CC4)c(Cl)cn2)CC1	active: 0.833 µM
C[C@@H]1[C@H](C)CC[C@]2(C(=O)O)CC[C@]3(C)C(=CC[C@@H]4[C@@]5(C)C[C@@H](O)[C@H](O)[C@@](C)(CO)[C@H]5CC[C@]43C)[C@@H]12	inactive
C=CC[C@@H]1C=C(C)C[C@H](C)C[C@H](OC)[C@H]2O[C@@](O)(C(=O)C(=O)N3CCCC[C@H]3C(=O)O[C@H](C(C)=C[C@@H]3CC[C@H](O)[C@H](OC)C3)[C@@H](C)[C@@H](O)CC1=O)[C@@H](C)C[C@@H]2OC	inconclusive: 1.32 µM [cytotoxic, full curve]
Cc1c(CN2CCN(S(C)(=O)=O)CC2)sc2c(N3CCOCC3)nc(-c3cnc(N)nc3)nc12	active: 0.105 µM
COc1ccc2c(c1)c(CC(=O)OCC(=O)O)c(C)n2C(=O)c1ccc(Cl)cc1	inconclusive: 0.001 µM
CC(NCCc1ccc(O)cc1)C(O)c1ccc(O)cc1 (stereo not drawn)	inconclusive: 0.0662 µM [cytotoxic, full curve, poor fit]
Nc1ccc(C(=O)c2cc3c(ccc4ccccc43)[nH]2)cc1	active: 4.18 µM
N#CC(=C(N)Sc1ccc(N)cc1)c1ccccc1C(F)(F)F	inactive
C=CCn1c(=O)c2cnc(Nc3ccc(N4CCN(C)CC4)cc3)nc2n1-c1cccc(C(C)(C)O)n1	active: 1.48 µM
O=C(CN1C(=O)C2(CCCC2)NC[C@H]1c1cc(F)cc(F)c1)Nc1ccc2c(c1)C[C@@]1(C2)C(=O)Nc2ncccc21	inactive
O=C(O)c1cccnc1	inactive
CCC(=O)O[C@]1(C(=O)SCF)[C@H](C)C[C@H]2[C@@H]3C[C@H](F)C4=CC(=O)C=C[C@]4(C)[C@@]3(F)[C@@H](O)C[C@@]21C	inconclusive: 37.2 µM [cytotoxic, single point]
C[C@@H]1CC(=O)NN=C1c1ccc(NN=C(C#N)C#N)cc1	inconclusive: 18.7 µM [cytotoxic, partial curve]
CC(C)OC(=O)[C@H](C)N[P@](=O)(OC[C@H]1O[C@@H](n2ccc(=O)[nH]c2=O)[C@](C)(F)[C@H]1O)Oc1ccccc1	inactive
Cc1csc(-c2nnc(Nc3ccc(Oc4ncccc4-c4ccnc(N)n4)cc3)c3ccccc23)c1	inconclusive: 20.9 µM [cytotoxic, partial curve]
COc1nc(C)nc(Cl)c1NC1=NCCN1	inconclusive: 10.5 µM [cytotoxic, full curve]
O=C1C(CCC(O)c2ccc(F)cc2)C(c2ccc(O)cc2)N1c1ccc(F)cc1 (stereo not drawn)	inactive
Cc1cnc(Nc2ccc(N3CCN(C)CC3)cc2)nc1Nc1cccc(S(=O)(=O)NC(C)(C)C)c1	active: 3.32 µM
CCn1c(-c2nonc2N)nc2c(C#CC(C)(C)O)ncc(OC[C@H]3CCCNC3)c21	inconclusive: 18.7 µM [cytotoxic, partial curve, poor fit]
N#CC(=C1Nc2ccccc2S1)c1ccnc(OCc2ccc(CN3CCOCC3)cc2)n1	inconclusive: 3.72 µM [cytotoxic, partial curve, poor fit]
CC(C)(N)C(=O)N[C@H](COCc1ccccc1)C(=O)N1CCC2(CC1)CN(S(C)(=O)=O)c1ccccc12	inconclusive: 16.6 µM [cytotoxic, partial curve, poor fit]
Nc1cccc(S(=O)(=O)N2CCCN(S(=O)(=O)c3ccc4c(c3)OCCO4)CC2)c1	inconclusive: 33.2 µM [cytotoxic, partial curve, poor fit]

Sorted by SMILES length (ascending): 3 of the compounds above
Structure (SMILES)	Potency
COc1nc(C)nc(Cl)c1NC1=NCCN1	inconclusive: 10.5 µM [cytotoxic, full curve]
N#CC(=C(N)Sc1ccc(N)cc1)c1ccccc1C(F)(F)F	inactive
Cc1cnc(Nc2ccc(N3CCN(C)CC3)cc2)nc1Nc1cccc(S(=O)(=O)NC(C)(C)C)c1	active: 3.32 µM

Experiment: Quantitative High-Throughput drug screen in 47 multiple myeloma cell lines against the NCATS MIPE library collection: AMO1_DSMZ cell viability assay (AID 1918927)
Details: AMO1 myeloma cells viability, CellTiter-Glo ATP luminescence, 48 h; series mostly up to 45.8 µM
How it was run: as §1

Structure (SMILES)	Potency
CCC(c1ccc(O)cc1)C(CC)c1ccc(O)cc1 (stereo not drawn)	inconclusive: 0.166 µM [cytotoxic, full curve, poor fit]
CCC(=C(c1ccc(O)cc1)c1ccc(OCCNC)cc1)c1ccccc1	active: 20.9 µM
NCCCC(N)(C(=O)O)C(F)F (stereo not drawn)	inconclusive: 14.8 µM [cytotoxic, partial curve, poor fit]
CN1c2ccccc2C(=O)N2CCc3c([nH]c4ccccc34)C21 (stereo not drawn)	inactive
Cc1ccc(C(=O)Nc2ccc(CN3CCN(C)CC3)c(C(F)(F)F)c2)cc1C#Cc1cnc2cccnn12	active: 2.96 µM
CC(C)c1onc(-c2c(Cl)cccc2Cl)c1COc1ccc(C=Cc2cccc(C(=O)O)c2)c(Cl)c1	inactive
O=c1[nH]cnc2[nH]ncc12	inactive
Nc1cccc2c1CN(C1CCC(=O)NC1=O)C2=O (stereo not drawn)	inconclusive: 0.0855 µM [cytotoxic, full curve, poor fit]
O=C(O)C(=O)Nc1cccc(C2=NN=N[N]2)c1	inactive

Source: PubChem BioAssay (NCATS)
